Assay results from publication PMC12463876, “AI-assisted design of ligands for lipocalin-2” (Frontiers in Immunology, 2025).
These are yes or no findings as the source states them, for the method shown.

How the values were obtained:
Assay in all cases: dynamic light scattering; Prometheus Panta (NanoTemper), PBS (20 mM sodium phosphate, 150 mM NaCl, pH 7.4), triplicate; 0.32, 0.22, 0.18, 0.10 and 0.2 mg/mL for MinP-1 to MinP-5; both purified
[1] = molecular target: MinP-1
[2] = molecular target: MinP-2
[3] = molecular target: MinP-3

B1: MinP-1 (designed binder)
chain: KKKVAVVVVRKTPEEAKAGFEEAKPNVELVASILSEDFEVETLAVTEEEYDEVLEKYDFVVRVYKMDLESAKISAKLIREHIKEIVK
binding [1]: no binding (tested: ~10–12 µM)

B2: MinP-2 (designed binder)
chain: MSKATVYDVSTGKTYEVSLEDAKKLASYAVYEGGYPLRISVAPEDTKAILDAIKNTSKEKAEEGKKLLEELN
notes: de novo miniprotein (RFdiffusion, ProteinMPNN) designed against LCN2; Cloned into pET30b with a Twin-Strep tag; also called MiniP-2; source: E. coli BL21 (DE3) pLysS, purified (Strep-Tactin XT magnetic beads, dialysis)
binding [2]: no binding (tested: ~10–12 µM)

B3: MinP-3 (designed binder)
chain: MKRVEIKALDNVENANAIAEVLKSHGIPVEVKEVSPDLKEVTSEAVVSEELAEKIKESLIELAKKLGPVGPIHISISDV
binding [3]: no binding (tested: ~10–12 µM)
